Measurements from paper doi:10.1101/2023.08.10.552853.
Results are given in words; binding and its absence hold for the method and conditions named. Binding seen in cells or lysates may run through a third protein. Some results given as binding are weak or reduced against the parent protein; the word gives no strength. Tags and fused reporters may be left off the sequences shown.

Sequences of proteins named here, by UniProt entry; tags and fusion partners are left off.
UniProt Q9SL67: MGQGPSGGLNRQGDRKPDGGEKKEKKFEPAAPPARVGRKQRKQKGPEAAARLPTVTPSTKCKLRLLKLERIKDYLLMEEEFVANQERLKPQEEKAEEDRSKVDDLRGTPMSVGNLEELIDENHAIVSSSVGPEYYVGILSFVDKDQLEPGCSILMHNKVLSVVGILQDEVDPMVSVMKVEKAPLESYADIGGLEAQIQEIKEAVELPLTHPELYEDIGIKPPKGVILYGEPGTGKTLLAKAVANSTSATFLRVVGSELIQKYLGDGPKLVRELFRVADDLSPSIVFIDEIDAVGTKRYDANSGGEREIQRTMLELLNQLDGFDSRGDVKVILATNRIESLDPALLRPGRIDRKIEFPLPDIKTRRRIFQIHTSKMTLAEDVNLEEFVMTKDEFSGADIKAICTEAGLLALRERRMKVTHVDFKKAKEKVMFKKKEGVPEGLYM
UniProt Q9FHY0: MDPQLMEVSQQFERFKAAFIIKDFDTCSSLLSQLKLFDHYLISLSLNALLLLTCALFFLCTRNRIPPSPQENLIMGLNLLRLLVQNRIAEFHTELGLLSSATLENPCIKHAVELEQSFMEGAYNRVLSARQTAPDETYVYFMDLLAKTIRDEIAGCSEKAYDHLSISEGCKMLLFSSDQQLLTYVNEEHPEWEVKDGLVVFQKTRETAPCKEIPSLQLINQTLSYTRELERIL

T1: NUCLEOPORIN1 (NUP1), BiFC fusion (Arabidopsis) (UniProt Q9CAF4)
T1 sequence: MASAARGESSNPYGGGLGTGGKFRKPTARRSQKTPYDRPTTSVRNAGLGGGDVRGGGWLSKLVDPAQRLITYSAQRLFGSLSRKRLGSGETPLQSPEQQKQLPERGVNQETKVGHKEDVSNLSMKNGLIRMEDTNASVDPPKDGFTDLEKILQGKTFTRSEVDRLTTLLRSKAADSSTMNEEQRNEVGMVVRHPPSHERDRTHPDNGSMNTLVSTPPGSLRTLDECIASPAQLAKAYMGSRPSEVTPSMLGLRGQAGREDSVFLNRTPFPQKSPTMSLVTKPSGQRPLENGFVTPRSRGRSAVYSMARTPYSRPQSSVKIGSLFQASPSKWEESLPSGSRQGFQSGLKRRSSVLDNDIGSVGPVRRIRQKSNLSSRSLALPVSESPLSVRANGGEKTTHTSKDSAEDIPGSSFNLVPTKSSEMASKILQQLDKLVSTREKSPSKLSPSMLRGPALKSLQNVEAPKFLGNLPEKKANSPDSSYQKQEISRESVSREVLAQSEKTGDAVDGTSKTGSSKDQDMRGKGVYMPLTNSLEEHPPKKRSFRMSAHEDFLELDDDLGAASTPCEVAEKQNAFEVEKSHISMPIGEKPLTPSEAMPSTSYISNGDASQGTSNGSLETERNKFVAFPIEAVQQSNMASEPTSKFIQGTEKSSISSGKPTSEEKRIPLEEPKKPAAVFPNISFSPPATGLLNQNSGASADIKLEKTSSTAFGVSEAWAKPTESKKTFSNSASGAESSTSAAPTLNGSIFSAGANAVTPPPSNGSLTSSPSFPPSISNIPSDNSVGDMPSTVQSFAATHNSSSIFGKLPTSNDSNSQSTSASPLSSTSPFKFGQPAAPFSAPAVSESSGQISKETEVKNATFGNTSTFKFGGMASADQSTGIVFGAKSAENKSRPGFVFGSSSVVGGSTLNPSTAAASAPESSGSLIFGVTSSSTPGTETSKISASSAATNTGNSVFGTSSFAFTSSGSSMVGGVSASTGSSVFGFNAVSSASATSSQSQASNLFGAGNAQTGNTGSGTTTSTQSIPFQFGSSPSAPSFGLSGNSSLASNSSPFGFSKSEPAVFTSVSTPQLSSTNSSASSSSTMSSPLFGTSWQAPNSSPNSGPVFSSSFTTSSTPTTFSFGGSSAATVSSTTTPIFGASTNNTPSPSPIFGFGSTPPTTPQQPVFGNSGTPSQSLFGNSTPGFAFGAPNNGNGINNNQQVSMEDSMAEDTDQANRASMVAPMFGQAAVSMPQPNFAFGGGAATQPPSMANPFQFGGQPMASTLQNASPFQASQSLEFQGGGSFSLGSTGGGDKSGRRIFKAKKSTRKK


Target: T1, NUCLEOPORIN1 (NUP1), BiFC fusion (Arabidopsis)
Test: split reporter

Molecule | binding
RPT2B, BiFC fusion (from UniProt Q9SL67 1-443) | binds
RPN12b, BiFC fusion (from UniProt Q9FHY0 1-233) | binds
RPN12a, BiFC fusion (protein, UniProt Q9SGW3 1-267) MDPQLTEVSQQFERFKAAFARKDYNTCSDLLSQLKVLLTKFTSLPPLFENSPNAAKELTIARDIYEHAVVLSVKTEDQDAFERDFFQLKPYYVDARNRIPQSPQENLILGLNLLRLLVQNRIAEFHTELELLSSATLEDPCIKHAVELEQSFMEGAYNRVLSARQTAPDATYVYFMDLLAKTIRDEIAGCSEKAYDYVSISDARQMLLFSSDQELLTYVTDEHPEWEVKEGFVVFQKAKETAPCKEIPSLQLINQTLSYARELERIV | binds
RPN10, BiFC fusion (protein, UniProt P55034 1-386) MVLEATMICIDNSEWMRNGDYSPSRLQAQTEAVNLLCGAKTQSNPENTVGILTMAGKGVRVLTTPTSDLGKILACMHGLDVGGEINLTAAIQIAQLALKHRQNKNQRQRIIVFAGSPIKYEKKALEIVGKRLKKNSVSLDIVNFGEDDDEEKPQKLEALLTAVNNNDGSHIVHVPSGANALSDVLLSTPVFTGDEGASGYVSAAAAAAAAGGDFDFGVDPNIDPELALALRVSMEEERARQEAAAKKAADEAGQKDKDGDTASASQETVARTTDKNAEPMDEDSALLDQAIAMSVGDVNMSEAADEDQDLALALQMSMSGEESSEATGAGNNLLGNQAFISSVLSSLPGVDPNDPAVKELLASLPDESKRTEEEESSSKKGEDEKK | binds
RPN3a, BiFC fusion (protein, UniProt Q9LNU4 1-488) MTQDVEMKDNNTPSQSIISSSTSTMQNLKEIAALIDTGSYTKEVRRIARAVRLTIGLRQKLTGSVLSSFLDFALVPGSEAHSRLSSFVPKGDEHDMEVDTASSATQAAPSKHLPAELEIYCYFIVLLFLIDQKKYNEAKACSSASIARLKNVNRRTIDVIASRLYFYYSLSYEQTGDLAEIRGTLLALHHSATLRHDELGQETLLNLLLRNYLHYNLYDQAEKLRSKAPRFEAHSNQQFCRYLFYLGKIRTIQLEYTDAKESLLQAARKAPIAALGFRIQCNKWAILVRLLLGEIPERSIFTQKGMEKALRPYFELTNAVRIGDLELFRTVQEKFLDTFAQDRTHNLIVRLRHNVIRTGLRNISISYSRISLPDVAKKLRLNSENPVADAESIVAKAIRDGAIDATIDHKNGCMVSKETGDIYSTNEPQTAFNSRIAFCLNMHNEAVRALRFPPNTHKEKESDEKRRERKQQEEELAKHMAEEDDDDF | binds
